Measured values from PubChem BioAssay AID504834 (National Center for Advancing Translational Sciences (NCATS), 2011).
The campaign covered roughly 320,000 compounds. About 22,000 (6.9%) were called active. Inconclusive results, whose numbers are uncertain, are shown with a selection of clear calls. Calls follow the shape of the dose curve; as a rule, active = well fitted inhibition curve with a large enough effect; inconclusive = small, poorly fitted or top-dose-only effect, or another doubt; inactive = no such curve, though single readings can be large or run the other way. Potencies beside an inconclusive call are fits to weak or partial responses and may not hold up.

Experiment: Primary qHTS for delayed death inhibitors of the malarial parasite plastid, 96 hour incubation
Conditions: P. falciparum luciferase reporter growth; series mostly up to 28.7 µM
Procedure, shortened: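 Cell-based qHTS: luciferase-tagged P. falciparum in erythrocytes (2% hematocrit, 0.05% parasitemia final) incubated with compounds for 96 hours, 37 C, 5% CO2; luciferase detection reagent then added and luminescence measured.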
Potency is read from the fitted curve at half-maximal effect.

SMILES | Potency
Nc1cc2nc[nH]c2cc1N | inconclusive: 18.5 µM [inhibitor, single point]
CC1(C)C(=O)NCCN1C(=O)c1ccc2nc(Cc3ccccc3F)oc2c1 | inconclusive: 10.4 µM [inhibitor, partial curve]
CCOC(=O)N1CCN(C(=O)C(=O)Nc2sc3c(c2C#N)CC(C)(C)OC3)CC1 | inconclusive: 10.4 µM [inhibitor, single point]
Cc1ccc(CCNC(=O)C2CCCN(S(=O)(=O)c3c(C)noc3C)C2)cc1 (configuration not stated) | inconclusive: 6.57 µM [inhibitor, partial curve, poor fit]
O=C1NC(=S)N/C1=C\c1cccnc1 | inactive
CCOC(=O)C1=C(C)NC(C)=C(C(=O)OCC)C1c1ccc(Br)o1 | active: 11.7 µM
CC1CCN(c2nc3c(c(=O)[nH]c(=O)n3C)n2Cc2ccccc2Cl)CC1 | active: 9.28 µM
COc1cc(/C=C/C(=O)c2ccc(C)cc2)ccc1OCC#N | inconclusive: 18.5 µM [inhibitor, single point]
CC1=C(C(=O)OCC2CCCO2)C(c2ccc(Cl)cc2)NC(=O)N1 (configuration not stated) | inactive
CC(=O)Nc1cccc(-c2csc(NCc3ccccc3)n2)c1 | active: 10.4 µM
CCNc1nc(NCC)nc(N(C#N)CCOc2ccccc2)n1 | active: 5.22 µM
CC1(C)OC(=O)C=C[C@]2(C)[C@H]3CC[C@@]4(C)[C@H](C(=O)O)OC(=O)[C@H]5O[C@]54[C@]3(C)C(=O)C[C@@H]12 | inactive
Cn1cc(S(=O)(=O)N2CCc3ccccc32)cc1C(=O)NC(C)(C)C | inactive
COc1ccc(-c2nnc(-c3ccccc3)o2)cc1OC | inactive
CC1Cc2ccccc2N1C(=O)CN1CCc2ccccc2C1 (configuration not stated) | inconclusive: 6.57 µM [inhibitor, partial curve]
COC(=O)C[N+](C)(C)CC#Cc1ccccc1 | inconclusive: 18.5 µM [inhibitor, single point]
Cc1cc(C)nc(Sc2ncnc3c2oc2ccccc23)n1 | inconclusive: 2.94 µM [inhibitor, partial curve]
Clc1cccc2c1CCN(Cc1nc(-c3cnccn3)no1)C2 | inconclusive: 18.5 µM [inhibitor, single point]
Cc1nnsc1S(=O)(=O)Cc1ccccc1C(F)(F)F | inconclusive: 8.28 µM [inhibitor, partial curve, poor fit]
CC(NC(=O)COC(=O)C1CC2CCCC(C1)C2=O)c1ccccc1 (configuration not stated) | inactive
CC(C)=NN/C(N)=N/C(=S)Nc1ccc(C)cc1 | inactive
CCCCOc1cccc(C(=O)NC(=S)Nc2ccc(Cl)c(C(=O)O)c2)c1 | inactive

Structural class: the compounds so far containing an NH in an aromatic ring (2)
SMILES | Potency
Nc1cc2nc[nH]c2cc1N | inconclusive: 18.5 µM [inhibitor, single point]
CC1CCN(c2nc3c(c(=O)[nH]c(=O)n3C)n2Cc2ccccc2Cl)CC1 | active: 9.28 µM
